From US20070293451A1, “Regulation ao ApoB by Hsp110 proteins and related compositions and methods” (University of Pittsburgh, priority 2006, published 2007)
These are yes or no findings as the source states them, for the method shown. Some entries that bind do so weakly or less than the wild type. Sequences can lack the tags named with a protein.

Molecular target: T1, peptide binding domain of Sse1p (Saccharomyces cerevisiae (yeast)) (UniProt P32589)
T1 sequence: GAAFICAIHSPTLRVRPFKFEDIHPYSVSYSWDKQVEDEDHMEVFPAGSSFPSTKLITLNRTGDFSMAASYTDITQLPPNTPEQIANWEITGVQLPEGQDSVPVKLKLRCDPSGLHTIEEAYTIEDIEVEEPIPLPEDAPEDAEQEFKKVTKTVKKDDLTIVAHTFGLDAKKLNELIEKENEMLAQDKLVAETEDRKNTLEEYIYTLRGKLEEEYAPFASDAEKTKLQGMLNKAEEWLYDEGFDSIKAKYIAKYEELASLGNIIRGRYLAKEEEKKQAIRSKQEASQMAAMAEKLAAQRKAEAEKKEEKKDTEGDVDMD
Experiment: fluorescence anisotropy

- binding: binds
Binder: LICGFRVVLMYRF (6-carboxyfluorescein-aminohexanoic acid linked to the N-terminus)
